The other results are listed elsewhere or left out. Shown are side measurements of this screen, not its main read-out; they come without a call. Most of these compounds were active or inconclusive in the main read-out, so they are no random draw. Words in brackets tell the shape of the fitted curve; partial curves, single points and poor fits give uncertain potencies.
Assay: qHTS Assay for Lipid Storage Modulators in Drosophila S3 Cells;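 as to cell number change: cells counted by Cell Tracker Red CMTPX staining in the red channel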
Conditions: BODIPY lipid droplet fluorescence, 18-24 h; for cell number change: measured here: cell count max response, cells fed with added oleic acid
How it was run: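 Drosophila S3 cells got compounds at several concentrations plus oleic acid (400 uM solution). Laser-scanning cytometry with 488 nm excitation read lipid droplets at 500-530 nm and cells at 575-640 nm. Percent activity was relative to 20 uM Triacsin C.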

[1] = measured here: lipid fluorescence (Fed channel) AC50, cells fed with added oleic acid
[2] = measured here: cell number channel AC50, cells fed with added oleic acid

Compound | cell number change | AC50 [1] | AC50 [2]
O=S(=O)(N/N=C/c1ccc(OC2CSC2)cc1)c1ccccc1 | 0.253% | 14.6 µM [falling, single point] | 
O=C(CSc1nnc(C2CC2)n1-c1ccccc1)Nc1ccc(N2CCOCC2)cc1 | 7.32% | 2.31 µM [rising, partial curve] | 
O=C(Cn1c(=O)sc2ccccc21)NCCOc1ccccc1F | 23.9% | 25.9 µM [rising, single point] | 
COc1ccccc1-c1nnc2n1N=C(C)CS2 | 18.7% | 16.4 µM [rising, partial curve] | 
C=CCSC1=N/C(=C\c2ccc(C)o2)C(=O)S1 |  | 5.17 µM [falling, full curve, poor fit] | 
COc1cc(N2C(=O)c3ccccc3C2=O)c(Cl)cc1C(=O)OCC(=O)N(C)C | -21.2% | 10 µM [falling, partial curve, poor fit] | 
CCOc1cc(C(=O)N(C)c2ccccc2)cc(OCC)c1OCC |  | 6.51 µM [rising, single point] | 4.11 µM [rising, single point]
Cc1ccc2cc(CCNC(=O)c3ccc4c(c3)OCO4)c(=O)[nH]c2c1C |  | 0.231 µM [rising, full curve, poor fit] | 0.146 µM [rising, full curve, poor fit]
COc1ccc(C(C#N)c2ccc(Cl)nn2)cc1 (configuration not stated) | -34.6% |  | 0.103 µM [rising, full curve, poor fit]
Clc1ccc(OCCCCN2CCc3ccccc3C2)cc1 | -14% | 6.51 µM [rising, partial curve, poor fit] | 
Cc1cc(C(=O)N/N=C/c2ccc3ccccc3c2)n[nH]1 | -1.42% | 29.1 µM [rising, single point] | 
CCOC(=O)c1c(C)[nH]c(C(=O)Nc2ccc3c(c2)OCO3)c1C | 20.6% | 0.731 µM [rising, full curve, poor fit] | 0.146 µM [rising, full curve, poor fit]
Cc1ccc(S(=O)(=O)N2CCN(CC(=O)Nc3ccnn3C3CCCC3)CC2)cc1 | -0.683% | 0.0058 µM [falling, full curve, poor fit] | 
O=C1CCCN1CCCNC(=S)Nc1ccc(F)c(Cl)c1 | 72.3% |  | 29.1 µM [rising, single point]
CC(=O)c1cccc(N(CC(=O)N2CCOCC2)S(C)(=O)=O)c1 | -15.1% | 2.59 µM [falling, full curve, poor fit] | 
O=C(COC(=O)C1=COCCO1)Nc1ncc(C(F)(F)F)cc1Cl | -0.0089% | 0.231 µM [falling, full curve, poor fit] | 
Cc1ccc(S(=O)(=O)N2CCCCC2)cc1NC(=O)CSCC(=O)O | -23.5% | 0.651 µM [falling, full curve] | 
OC(Cc1ccncc1)(c1ccccc1)c1ccccc1 | 19.4% | 29.1 µM [falling, single point] | 
Cc1cccc(NC(=O)Cn2nc(-c3ccco3)ccc2=O)c1C | 3.36% | 6.51 µM [falling, single point] | 

Compound | cell number change | AC50 [1] | AC50 [2]
CCN(CC)c1ccc(C(=O)OCC(=O)N(C)Cc2ccccc2)cc1 | 17.2% | 29.1 µM [falling, single point] | 
CC1CN(C(=O)c2cccc(S(=O)(=O)N3CCOCC3)c2)CC(C)O1 (configuration not stated) | 1.69% |  | 
CCn1c2ccccc2c2nnc(SCCN3CCOCC3)nc21 | -14.6% | 11.6 µM [falling, single point] | 
CCCC(CCC)C(=O)Nc1c[nH]c(=O)[nH]c1=O | 8.96% | 0.00651 µM [rising, full curve, poor fit] | 
CCCCNC(=S)N(C)N=C1CCC(c2ccccc2)CC1 (configuration not stated) | 23.6% |  | 
Cc1nc2ccccc2n1CCC(=O)O | 9.46% | 29.1 µM [falling, single point] | 
Cc1ccc(-n2nnnc2SCc2nnc(-c3ccccc3Br)o2)c(C)c1 | -34.2% |  | 16.4 µM [falling, partial curve]
O=C(NN1C(=O)c2ccc(-c3ccc4c(c3)C(=O)N(NC(=O)c3cccnc3)C4=O)cc2C1=O)c1cccnc1 | -9.62% |  | 
CCCCn1c(=O)nc2n(-c3ccc(OC)cc3)c3ccccc3cc-2c1=O | 36.9% | 29.1 µM [rising, partial curve, poor fit] | 0.103 µM [rising, full curve, poor fit]
COc1ccc(OC)c(S(=O)(=O)n2nnc3ccccc32)c1 | -25.9% | 2.31 µM [falling, full curve] | 0.0259 µM [falling, full curve]
CCCc1cc(C(=O)N2CCCC(Cc3ccccc3C)(C(=O)OCC)C2)no1 (configuration not stated) | -2.29% | 29.1 µM [rising, single point] | 
CCc1ccc(CN(Cc2cccnc2)C(=O)/C=C/c2ccc(OC)cc2)cc1 | 22.1% | 29.1 µM [falling, single point] | 
CNC(=O)Nc1cc(C(F)(F)F)cc(C(F)(F)F)c1 | 44.2% | 7.31 µM [rising, partial curve] | 29.1 µM [rising, single point]
COc1ccc(/C=C/C(=O)CC(O)(c2ccccc2)C(F)(F)F)cc1 (configuration not stated) | -22.8% | 20.6 µM [falling, partial curve] | 
O=C(NCC1CCCO1)c1cccc(Oc2c(Cl)cccc2[N+](=O)[O-])c1 (configuration not stated) | -53% | 25.9 µM [falling, partial curve, poor fit] | 13 µM [falling, partial curve, poor fit]
Cc1cccc(CSCCNC(=O)Nc2ccccc2)c1 | 19.4% | 11.6 µM [rising, single point] | 
CN(C)c1ccc(/C=N/NC(=O)C2CC2c2ccccc2)cc1 (configuration not stated) | -12.8% | 29.1 µM [falling, single point] | 
COc1ccc(OC)c(NC(=O)CSc2nnc3ccc(-c4ccncc4)nn23)c1 |  | 0.58 µM [falling, single point] | 
CSCCC(NC(=O)C12CC3CC(CC(C3)C1)C2)C(=O)OCC(=O)c1ccc(C)cc1 (configuration not stated) | 44.3% | 1.46 µM [falling, full curve] | 6.51 µM [rising, full curve, poor fit]

A few values from the list.
Entry of CCCCNC(=S)N(C)N=C1CCC(c2ccccc2)CC1 (configuration not stated) under cell number change: 23.6%
Entry of CSCCC(NC(=O)C12CC3CC(CC(C3)C1)C2)C(=O)OCC(=O)c1ccc(C)cc1 (configuration not stated) under cell number change: 44.3%
